Among the data in PubChem BioAssay AID190 (DTP/NCI, 2004) are survivor count and T/C values, retold here.

The list is a part of this screen's results and no random one: it gathers tests that were run many times, whatever their T/C, doses with no T/C, and many T/C values between a quarter and a half above the control. Further doses and runs are listed elsewhere. T/C: endpoint of the treated group in % of that of the vehicle group. Some doses have a count of surviving animals in place of a T/C: the source files T/C as zero there, which appears to mark a toxic dose or a test without result, not a measured value. Some survivor counts are full or nearly so, which does not show that the dose was tolerated: survival well below the control is almost never listed, so the zero probably covers shortened survival too. Counts of survivors are from the toxicity check (mostly the fifth day) where no day follows; animals may have died later. Schedules are NCI's codes, taken here to give the interval after Q, in days (D) or hours (H), and the number of doses after X. For survival time, this PubChem deposit counts one and a half times the control or more as active, and values a quarter to a half above the control carry no call in these data; other NCI protocols may use other cut-offs. Some T/C values are followed by the survivors on the day toxicity was checked, most often the fifth; without a count, all were alive then.

The test relates to AKR/Lw mice, AKR lymphoma ip, median survival T/C. The experiment in a line: NCI In Vivo Anticancer Drug Screen. Data for tumor model Lymphoma AKR (Transplanted) (intraperitoneal) in AKR/Lw mice. Particulars: T/C endpoint: median survival time, higher T/C = longer survival. The method, then: The antitumor activity of compounds was measured in mice bearing transplantable tumors. Survival or tumor size were measured and the results are expressed as the measurement made in the treated group (T) divided by the measurement made in the vehicle treated control group (C). The tumor model used in this assay is Lymphoma AKR (Transplanted) (intraperitoneal) in AKR/Lw mice

`ClCCCNCc1ccccc1`: the survivor count is 5 of 10 (dose: 200.0 mg/kg/injection, schedule: Q01DX001 (ip), vehicle: saline) and 0 of 10 (dose: 400.0 mg/kg/injection, schedule: Q01DX001 (ip), vehicle: saline).

For `O=NN(CCCl)C(=O)N[C@H]1CCCC[C@@H]1Cl`, the T/C (dose: 10.0 mg/kg/injection, schedule: Q04DX004 (ip), vehicle: Klucel (hydroxypropylcellulose) (HPC)) was 135 % of control; the T/C (dose: 10.0 mg/kg/injection, schedule: Q04DX004 (ip), vehicle: saline) is 135 % of control; the T/C (dose: 20.0 mg/kg/injection, schedule: Q04DX004 (ip), vehicle: saline) is 146 % of control. The survivor count is 9 of 10 (dose: 40.0 mg/kg/injection, schedule: Q04DX004 (ip), vehicle: Klucel (hydroxypropylcellulose) (HPC)); 10 of 10 (dose: 40.0 mg/kg/injection, schedule: Q04DX004 (ip), vehicle: saline); 10 of 10 (dose: 80.0 mg/kg/injection, schedule: Q04DX004 (ip), vehicle: saline).

As to `O=C(O)c1ccc(SSc2ccc(C(=O)O)cn2)nc1`, under “dose: 100.0 mg/kg/injection, schedule: Q04DX003 (ip), vehicle: Klucel (hydroxypropylcellulose) (HPC)”, the T/C was 140 % of control [8 of 10 alive]. The survivor count is listed as 10 of 10 (dose: 200.0 mg/kg/injection, schedule: Q04DX003 (ip), vehicle: Klucel (hydroxypropylcellulose) (HPC)) and 10 of 10 (dose: 400.0 mg/kg/injection, schedule: Q04DX003 (ip), vehicle: Klucel (hydroxypropylcellulose) (HPC)).

As to `O=C(c1ccccc1)C1CCC1`, the survivor count (dose: 400.0 mg/kg/injection, schedule: Q01DX001 (ip), vehicle: Klucel (hydroxypropylcellulose) (HPC)) is reported as 10 of 10.
